# Data: paper PMC7862700
# Amino acid sequences for entries named in this document (tags omitted). A change or cut given only in a name is not applied to a line headed by its entry.
# UniProt O43186: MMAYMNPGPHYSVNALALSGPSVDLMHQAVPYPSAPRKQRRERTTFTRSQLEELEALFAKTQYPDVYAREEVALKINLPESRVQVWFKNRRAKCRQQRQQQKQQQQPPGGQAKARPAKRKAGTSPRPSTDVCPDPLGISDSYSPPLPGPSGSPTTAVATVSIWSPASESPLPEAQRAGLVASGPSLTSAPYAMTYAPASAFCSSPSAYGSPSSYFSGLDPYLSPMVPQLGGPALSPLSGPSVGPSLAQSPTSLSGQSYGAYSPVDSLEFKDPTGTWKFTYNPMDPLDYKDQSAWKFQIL
# The list shows a part of the results, in another mix than the full data. At the low end of the ranking the order means little.
# Target: CRX (UniProt O43186)
# Assay: DAPPL (digital affinity profiling via proximity ligation, sequencing)
# Conditions: 10 mM Tris-HCl pH 7.5, 50 mM NaCl, 1 mM DTT, 4% glycerol, room temperature, 30 min; GST-TFs on glutathione beads, 16-mer random dsDNA library, 0.1% …; high values mean tight binding; double strand, one strand shown; scale: fold enrichment (6-mer frequency, TF over GST control)
row,Sequence,binding signal
1,AAGGCA,0.943
2,CAATTA,1.25
3,ATAATG,1.52
4,CGTCTT,1.5
5,GTCCAT,0.85
6,TACAAC,0.986
7,ACCTCA,0.952
8,ACGACA,0.864
9,GGCTAT,0.936
10,GCGTTT,0.926
11,AGCGAC,0.94
12,CCTGAC,1.11
13,CATGAC,0.894
14,CTCTTA,2.2
15,ATATAA,1.68
16,CCGAAC,1.17
17,TGTGCC,0.817
18,ACGACC,0.86
19,AGTGGT,0.808
20,ACACCA,0.78

row,Sequence,binding signal
1,GAAGTC,0.53
2,CGTACC,0.781
3,CATACC,0.748
4,GTAATT,1.59
5,GAAGTA,0.894
6,CCGACG,0.926
7,CCTCCT,1.32
8,GGAAGA,0.607
9,CAACCC,0.886
10,ACCCAA,0.974
11,ATAACA,1.39
12,TTGCAG,1.1
13,CGCACG,0.764
14,TAATCA,2.51
15,ACCTGA,0.96
16,ACATGT,0.853
17,CTCCCA,1.19
18,AATTTC,1.49
19,ATGGTG,0.895

# Taken from above:
# GTAATT | binding signal: 1.59
# ATGGTG | binding signal: 0.895
# CTCCCA | binding signal: 1.19
